Among the data in PubChem BioAssay AID2685 (National Center for Advancing Translational Sciences (NCATS), 2010) are cell number change and AC50 values, retold here.

The list shows a part of the results. Further columns of the screen follow, without active or inactive calls. Most of these compounds were active or inconclusive in the main read-out, so they are no random draw. Words in brackets tell the shape of the fitted curve; partial curves, single points and poor fits give uncertain potencies.

The assay can be described thus: qHTS Assay for Lipid Storage Modulators in Drosophila S3 Cells.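 For cell number change: cells counted by Cell Tracker Red CMTPX staining in the red channel.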 As to conditions: BODIPY lipid droplet fluorescence, 18-24 h; for cell number change: measured here: cell count max response, cells fed with added oleic acid. In short, it runs like this:
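Drosophila S3 cells loaded with oleic acid (400 uM, as added) and compounds at several concentrations; lipid droplets imaged by 488-nm laser-scanning cytometry, 500–530 nm intensity and object ratio to cell channel. Percent activity normalized to 20 uM Triacsin C.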
(In qHTS, concentration-response curves come from the screen itself.)

Where [1] appears, read: measured here: lipid fluorescence (Fed channel) AC50, cells fed with added oleic acid.
Setting [2] is: measured here: cell number channel AC50, cells fed with added oleic acid.

As to `O=C(NCCCN1CCOCC1)c1cc2c(s1)CCC2`, the cell number change was determined as 12.4%. Under setting [1], the AC50 – broadly, the concentration at which the activity in the assay is half-maximal – is 0.103 µM [rising, full curve]. Regarding `O=c1c2cc(NC(=S)NC3CCN(Cc4ccccc4)CC3)ccc2nc2n1CCCCC2`, the cell number change worked out at 42.5%. As to `O=C(CCCOc1ccccc1)N1CCN(C(=O)c2ccco2)CC1`, the cell number change was -1.64%. Besides, the AC50 under setting [1] is 16.4 µM [rising, partial curve]. With `COc1ccc(OCC(=O)Nc2ccc(NC(=O)c3ccco3)c(C)c2)cc1`, the cell number change stood at 19%. For the same compound, the AC50 under setting [2] was 0.146 µM [rising, full curve, poor fit]. Also, under setting [1], the AC50 is 16.4 µM [rising, single point]. On to `O=C(O)c1ccc(/C=N/Nc2nnnn2-c2ccccc2)cc1`, for which the cell number change came to 24.4%. Also, the AC50 under setting [2] was 0.231 µM [rising, full curve, poor fit]. Also, the AC50 under setting [1] was 11.6 µM [rising, single point]. For `CC1CC(C)(C)NC(=O)O1` (stereo not drawn), the cell number change is -32.2%. The AC50 under setting [2] was 16.4 µM [falling, single point]. The half-maximal activity concentration (AC50) under setting [1] is 0.92 µM [falling, full curve, poor fit]. On to `CC1CCN(C(=S)Nc2cccc(S(=O)(=O)N(C)C)c2)CC1`, for which the AC50 reads like this: under setting [2], 0.731 µM [rising, single point]; under setting [1], 13 µM [rising, partial curve]. On to `Cc1nc(N[C@@H](Cc2c[nH]c3ccccc23)C(=O)O)c2oc3ccccc3c2n1`, for which the cell number change is 2.36%. Moreover, the AC50 under setting [2] was 0.0058 µM [rising, full curve, poor fit]. For the same compound, the AC50 under setting [1] is 1.84 µM [falling, partial curve]. With `CCOC(=O)N1CCc2[nH]c3ccc(C)cc3c2C1`, the cell number change is -25.8%. Also, the AC50 under setting [1] is 32.6 µM [falling, single point]. In the case of `CCc1ccccc1NC(=O)CSc1nc(-c2ccccc2)nn1C(=O)c1cccc([N+](=O)[O-])c1`, the cell number change was -31.4%. Besides, the AC50 under setting [2] is 1.16 µM [falling, partial curve]. Take `FC(F)Oc1ccc(NC(=S)NC2CCSc3ccccc32)cc1` (stereo not drawn): the cell number change amounted to 33%. Besides, the AC50 under setting [1] is 14.6 µM [rising, single point]. For the compound `COc1ccc(-n2c(SCC(=O)Nc3cc(C)on3)nc3ccc(O)cc3c2=O)cc1OC`, the AC50 under setting [1] is 0.651 µM [falling, single point]. For the compound `CN(C)CCNC(=O)/C(=N\O)c1ccccn1`, the cell number change is -3.9%. The AC50 under setting [1] is 25.9 µM [falling, single point].

Turning to `O=C(/C=N/O)NCc1cccnc1`, the cell number change was -14.6%. `Fc1ccc(Nc2nc(N3CCOCC3)c3ccccc3n2)cc1`: the cell number change was -24%. Moreover, the AC50 under setting [1] is 0.461 µM [rising, single point]. Take `COc1cc2c(cc1OC)C1O[C@](c3ccsc3)(C2)OC2=C1C(=O)CC(C)(C)C2`: the cell number change is 13.6%. For `O=C(/C=C/c1ccc2c(c1)OCO2)Nc1c(C(=O)O)[nH]c2ccccc12`, the cell number change was determined as 2.09%. Under setting [1], the AC50 was 32.6 µM [rising, single point]. On to `CCc1cc2c(N3CCN(c4ccccc4)CC3)ncnc2s1`, for which the cell number change worked out at 68.2%. Also, the AC50 under setting [2] is 11.6 µM [rising, partial curve]. Also, under setting [1], the AC50 was 1.84 µM [rising, partial curve]. Take `Nc1cc(=O)[nH]c(SCC(=O)N2CCN(S(=O)(=O)c3ccc4ccccc4c3)CC2)n1`: the cell number change was -9.29%. Moreover, under setting [1], the AC50 is 0.13 µM [falling, full curve, poor fit]. As to `COCCN(CCOC)C(=S)Nc1ccccc1Cl`, the cell number change was 2.69%. Consider `CC(C)NC(=O)CCCC(=O)NC(C)C`, for which the cell number change was -32%. For the same compound, under setting [2], the AC50 was 5.8 µM [falling, full curve, poor fit]. The AC50 under setting [1] is 6.51 µM [falling, single point]. For the compound `C=CCNS(=O)(=O)c1ccc(C(=O)OCc2cc(=O)oc3cc(OC)ccc23)cc1`, the cell number change was 10.9%. Besides, under setting [1], the AC50 is 29.1 µM [falling, single point].

`CCCN1C(=O)/C(=C/c2ccc(OCC(=O)OCC)cc2)NC1=S`: the cell number change was -52.4%. Also, the AC50 under setting [2] is 29.1 µM [falling, single point]. Besides, the AC50 under setting [1] is 29.1 µM [falling, partial curve, poor fit]. For the compound `O=C(CCn1c(=O)[nH]c2ccsc2c1=O)N(CCc1ccccc1)Cc1ccccc1`, under setting [1], the half-maximal activity concentration (AC50) is 6.51 µM [falling, single point].

Consider `O=C(O)c1ccc(N2Cc3ccccc3C2)cc1O`, for which the cell number change worked out at 57.4%. Moreover, under setting [2], the AC50 was 18.4 µM [rising, partial curve, poor fit]. Regarding `CC(C)(C)C(=O)N1CCN(c2ccc(NC(=O)c3ccco3)cc2)CC1`, the cell number change was 3.85%. Further, the AC50 under setting [2] is 7.31 µM [rising, single point].

As for `CCCC1=C(C(=O)OCC)C(c2ccncc2)n2ncnc2N1` (stereo not drawn), the cell number change was -57%. Besides, the AC50 under setting [2] is 29.1 µM [falling, single point]. Besides, under setting [1], the AC50 was 5.8 µM [rising, single point]. For `Cc1ccccc1C(=O)Nc1ccc(S(=O)(=O)N2CCCC2)cc1`, the cell number change is -22.9%. Further, the AC50 under setting [1] was 0.206 µM [falling, full curve, poor fit].

Take `COc1ccccc1N1CCN(CC(=O)NCc2ccc(Cl)cc2)CC1`: the cell number change was -34.5%. Also, the AC50 under setting [2] is 32.6 µM [falling, partial curve, poor fit]. For `COc1ccc2c(c1)c1c(n2C(C)=O)C(OC(C)=O)=NCC1`, the cell number change was -126%. The AC50 under setting [2] is 29.1 µM [falling, partial curve]. Consider `CC(C)c1ccc(NC(=O)c2snc3ccc(Cl)cc23)cc1`, for which the cell number change was -9.67%. Moreover, under setting [1], the AC50 was 29.1 µM [falling, single point].

Regarding `CCc1cccc(C)c1NC(=O)CC1Oc2ccc(C)cc2NC1=O` (stereo not drawn), the cell number change is 4.56%. The AC50 under setting [1] was 2.91 µM [rising, single point]. Turning to `C/C(=N/OC(=O)c1ccc(C)cc1)c1cccs1`, the cell number change is 151%. For the same compound, the AC50 under setting [2] is 29.1 µM [rising, partial curve]. For the same compound, the AC50 under setting [1] was 29.1 µM [rising, single point]. With `CCCN(c1ccccc1F)S(=O)(=O)c1c[nH]c(C(=O)OC)c1`, the AC50 under setting [1] was 4.11 µM [falling, single point]. For `O=C1CCCC2=C1C(c1cccs1)n1nc(SCc3ccccc3)nc1N2` (stereo not drawn), the cell number change came to 82.8%. In addition, under setting [1], the AC50 was 2.91 µM [rising, partial curve]. Take `CCNC(=O)CN(CCc1ccccc1)S(=O)(=O)c1ccc(OC)cc1`: under setting [1], the AC50 is 6.51 µM [falling, partial curve].

Regarding `COc1ccc(C2NC(=O)C(C)S2)cc1` (stereo not drawn), the cell number change is -7.05%. For the same compound, the AC50 under setting [2] was 0.00461 µM [falling, full curve, poor fit]. Also, the AC50 under setting [1] was 0.82 µM [falling, partial curve]. As to `O=C(Nc1ccc(F)cc1)NC1CCCCCCC1`, the cell number change was found to be 2.48%. Further, the AC50 under setting [2] is 6.51 µM [rising, single point].

Turning to `CC(C)OC(=O)c1cccc(-c2ccc(C=O)o2)c1`, the cell number change is -20.3%. In addition, under setting [1], the AC50 is 2.06 µM [falling, partial curve, poor fit].

For the compound `CC1CCCN(C(=O)COC(=O)Cc2c[nH]c3ccccc23)C1` (stereo not drawn), the cell number change is -17.1%.

On to `CN(C)c1ccc(/C=N\NC(=S)SCN2C(=O)C3CCC(C)(C2=O)C3(C)C)cc1` (stereo not drawn), for which the cell number change was -12.1%. Under setting [1], the AC50 is 16.4 µM [falling, partial curve, poor fit].

Regarding `CCCCCCOc1ccc(C(=O)NCCCn2ccnc2)cc1`, the cell number change came to 11.3%. As for `Cc1cc(C(=O)Nc2ccccc2C)on1`, the cell number change worked out at 13.2%. Also, the concentration at half-maximal activity (AC50) under setting [1] was 35.5 µM [falling, single point]. Turning to `CCOC(=O)C1CCCN(c2nnnn2-c2ccccc2)C1` (stereo not drawn), the cell number change came out at 0.14%. Take `COc1ccc(/C=C(\C#N)C(=O)OCC(=O)NC(=O)NCCC(C)C)cc1`: the cell number change turned out to be 0.415%. Further, under setting [2], the AC50 is 0.092 µM [falling, full curve]. The AC50 under setting [1] is 0.103 µM [falling, full curve, poor fit].

With `CCN(CC)C(=O)Cn1cc(C(=O)C(=O)N2CCN(Cc3ccc4c(c3)OCO4)CC2)c2ccccc21`, the cell number change is 26.7%. Moreover, the AC50 under setting [1] is 3.26 µM [rising, partial curve, poor fit]. Take `CCOC(=O)c1c(N)sc2c(O)c(Br)ccc12`: the cell number change was 0.722%. In addition, the AC50 under setting [2] is 0.082 µM [rising, full curve, poor fit]. Besides, the AC50 under setting [1] is 0.103 µM [rising, full curve, poor fit]. For `CC(=O)NC(Cc1ccc(F)cc1)C(=O)NC1CCN(S(=O)(=O)c2ccccc2)CC1` (stereo not drawn), the cell number change came to 11.5%. Also, the AC50 under setting [1] was 0.116 µM [falling, single point]. For `COc1ccc(NC(=O)CN(C)C(=O)CSc2ccc3c(c2)OCCO3)cc1`, the cell number change worked out at 39.9%. In addition, the AC50 under setting [2] is 29.1 µM [rising, single point]. The AC50 under setting [1] is 29.1 µM [rising, single point]. Take `Cc1ccc(C)c(-n2nnnc2Sc2nnnn2-c2ccccc2)c1`: the AC50 under setting [1] was 0.0058 µM [falling, full curve, poor fit]. Same read-out and setting: as for `CC(=O)C(=Nc1ccccc1Cl)NNc1ccc(Cl)cc1`, the figure is 13 µM [falling, partial curve]. Turning to `COCCN(C/C=C/c1ccccc1)C/C=C/c1ccccc1`, the cell number change came to 4.21%. As to `Cc1ccc2c(C)c(C(=O)Nc3cccnc3)oc2c1`, the AC50 under setting [1] is 6.51 µM [rising, single point]. With `CCNC(=S)N/N=C/c1cc(C)n(-c2ccc(Cl)cc2)c1C`, the cell number change was determined as 65%. Further, the AC50 under setting [1] was 29.1 µM [rising, single point].

For the compound `Cc1cc(N/C=C\c2nnnn2-c2ccccc2)no1`, the cell number change came out at 4.15%. Besides, the AC50 under setting [1] is 3.66 µM [falling, full curve]. As for `O=C(OCC(=O)N1CCN(c2ccccc2)CC1)c1cccs1`, the cell number change was determined as 54.2%. Further, under setting [2], the AC50 was 13 µM [rising, partial curve]. Further, the AC50 under setting [1] is 29.1 µM [rising, single point].

`COc1c(C)cc(S(=O)(=O)N2CCCC2)c(C)c1C`: the cell number change was 55.2%. Also, under setting [2], the half-maximal activity concentration (AC50) is 20.6 µM [rising, partial curve, poor fit]. Regarding `CCN(CC)c1ccc(NC(=O)C2=CCN(S(=O)(=O)c3ccc(F)cc3)CC2)c(C)c1`, the cell number change came to 3.17%. Further, the AC50 under setting [1] was 8.2 µM [rising, partial curve].

As to `[O-]/[N+](=C\c1ccccc1)[C@@H]1CCCC[C@@H]1/[N+]([O-])=C/c1ccccc1`, the cell number change is 3.31%. Besides, the AC50 under setting [1] was 3.26 µM [falling, single point]. As for `O=C(c1cccc(S(=O)(=O)Nc2ccccc2F)c1)N1CCN(c2ccccc2F)CC1`, the AC50 under setting [2] was 1.64 µM [rising, partial curve, poor fit].
